Article PMC12461627, “Locking CBL TKBD in its native conformation presents a novel therapeutic opportunity in mutant CBL-dependent leukemia” (Molecular Therapy, 2025)

Sequences of proteins named here, by UniProt entry; tags and fusion partners are left off.
UniProt Q13191: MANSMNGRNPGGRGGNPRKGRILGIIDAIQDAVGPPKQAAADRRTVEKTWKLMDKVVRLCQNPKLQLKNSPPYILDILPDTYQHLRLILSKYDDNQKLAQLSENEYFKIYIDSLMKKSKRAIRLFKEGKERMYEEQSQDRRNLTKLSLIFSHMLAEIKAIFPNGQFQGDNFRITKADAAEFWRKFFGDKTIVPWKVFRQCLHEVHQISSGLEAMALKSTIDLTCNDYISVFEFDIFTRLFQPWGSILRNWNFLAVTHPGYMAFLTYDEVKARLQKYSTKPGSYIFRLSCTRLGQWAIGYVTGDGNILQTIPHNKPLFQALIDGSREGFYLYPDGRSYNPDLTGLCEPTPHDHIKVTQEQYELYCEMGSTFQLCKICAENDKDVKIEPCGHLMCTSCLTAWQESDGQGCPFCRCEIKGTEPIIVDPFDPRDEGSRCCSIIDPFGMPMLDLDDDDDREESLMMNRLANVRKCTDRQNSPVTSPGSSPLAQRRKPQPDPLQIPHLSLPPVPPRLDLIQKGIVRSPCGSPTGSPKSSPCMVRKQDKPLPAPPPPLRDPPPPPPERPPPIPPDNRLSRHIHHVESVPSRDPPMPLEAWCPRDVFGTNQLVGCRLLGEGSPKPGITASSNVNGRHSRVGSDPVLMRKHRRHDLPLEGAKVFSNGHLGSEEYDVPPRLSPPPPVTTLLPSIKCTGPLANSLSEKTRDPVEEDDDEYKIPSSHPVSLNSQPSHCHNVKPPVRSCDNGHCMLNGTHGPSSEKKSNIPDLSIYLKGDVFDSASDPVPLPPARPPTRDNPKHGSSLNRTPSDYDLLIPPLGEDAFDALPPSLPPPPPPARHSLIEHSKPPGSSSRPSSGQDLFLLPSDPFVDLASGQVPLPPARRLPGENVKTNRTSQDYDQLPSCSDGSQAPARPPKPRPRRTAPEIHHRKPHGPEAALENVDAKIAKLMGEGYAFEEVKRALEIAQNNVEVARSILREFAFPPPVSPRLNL

Molecular target: T1, GFP-peptide10 fusion protein (expressed in HEK293)
T1 sequence: MTVEEMDSWIKSWDQM
Assay: affinity purification with mass spectrometry; GFP fusion or empty vector expressed in HEK293, precipitated with GFP trap, on-bead digestion, label-free quantification

For “CBL-B (endogenous, HEK293) (from UniProt Q13191 1-982)”, the binding was “binds”.

These are yes or no findings as the source states them, for the method shown. Binding seen in cells or lysates may run through a third protein. A yes stands for co-enrichment or nearness to the bait. Other partners may have been found. Where a sequence is shown, tags or fusion partners need not be part of it.
